# PubChem BioAssay AID2685 (National Center for Advancing Translational Sciences (NCATS), 2010)
# About 2,100 (0.66%) of roughly 320,000 compounds were called active. Inconclusive results, whose numbers are uncertain, are shown with a selection of clear calls. The call rests on the fitted dose curve; in most records, active means well fitted inhibition curve with a large enough effect in the signal ratio, with a control signal flat (not every such curve was filed as active); inconclusive means small, poorly fitted or top-dose-only effect, or effect the other way, or a change in a side signal; inactive means flat fitted curve, though single readings scatter; the % refers to the signal ratio. Potencies beside an inconclusive call are fits to weak or partial responses and may not hold up.
# Test: qHTS Assay for Lipid Storage Modulators in Drosophila S3 Cells
# Conditions: BODIPY lipid droplet fluorescence, 18-24 h, cells fed with added oleic acid; lipid storage change, negative = inhibition: at 46.1 µM (top of the series) unless noted
# In short: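 Laser-scanning cytometry quantifies lipid droplet accumulation (500–530 nm total intensity; droplet/cell object ratio) in oleic acid-fed (400 uM added) Drosophila S3 cells treated with a concentration series. 20 uM Triacsin C defined 100% inhibition.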
# On the % scale 0 is the no-effect control and ±100 the full control effect; potency means the concentration at half of the fitted maximal effect.
Compound,"lipid storage change, negative = inhibition",Potency,outcome
O=C(O)c1ccccc1NCc1ccco1,inconclusive: -2.26%,,
O=C(O)/C=C\C(=O)NC1CCCCC1,inconclusive: -0.617%,,
COc1ccc2c(c1)OC[C@H]1[C@H]2N2C(=O)CN(CC3CCCO3)C(=O)[C@@]2(C)[C@H]1c1ccccc1 (stereo partly specified),,"inconclusive: 4.11 µM [falling, partial curve, poor fit]",
O=C(CCNC(=O)C1CCN(S(=O)(=O)c2ccc(F)cc2)CC1)NC1CC1,inconclusive: 20.2%,,
O=c1oc2ccccc2c(N2CCCC2)c1[N+](=O)[O-],inconclusive: 7.15%,,
O=C(NC(=S)Nc1cccc2c(O)cccc12)c1ccccc1[N+](=O)[O-],,"inconclusive: 0.58 µM [activator, single point]",
C/C(=N\N=C(/N)SC1CC(=O)N(c2ccc(Cl)cc2)C1=O)c1cccs1 (stereo unspecified),inconclusive: 6.99%,,
CCOC(=O)COn1c(=O)c(-c2ccc(Br)cc2)[n+]([O-])c2ccccc21,inconclusive: 15.2%,,
COC(=O)c1c(NC(=O)CSc2nc3ccccc3c(=O)n2-c2ccccc2)sc(C)c1C,inconclusive: 35.4%,,
COc1cc(-c2cn(S(=O)(=O)c3cccc4nsnc34)nc2N)cc(OC)c1OC,,"inconclusive: 9.2 µM [rising, partial curve]",
CCCCN(C)CCN1C(=O)C2C(C(=O)Nc3cccc(OC)c3)C3C=CC2(O3)C1C(=O)NC1CCCCC1C (stereo unspecified),,"inconclusive: 10.3 µM [falling, single point]",
CCC1Oc2ccc(C)cc2N(CC(=O)NCCCN2CCCCC2CC)C1=O (stereo unspecified),inconclusive: -17.2%,,
COc1ccc(OC)c(NC(=S)NCc2ccc(S(N)(=O)=O)cc2)c1,inconclusive: 20.1%,,
O=C(Cc1ccsc1)Nc1ccc(S(=O)(=O)C(F)F)cc1,inconclusive: -11.7%,,
O=C(Cn1cccc1C(=O)c1ccccc1)NCCc1ccccc1,,,inactive [at 46.1 µM]
Cc1ccc(S(=O)(=O)N2CCOCC2)cc1C(=O)Nc1ccc2c(c1)CCC2,inconclusive: -28.2%,,
Cc1ccc(NC(=O)Nc2ncccc2C)cc1,inconclusive: 0.0247%,,
CCOc1cc(C2C(C(=O)c3ccco3)=C(O)C(=O)N2Cc2ccccc2)ccc1O (stereo unspecified),,"inconclusive: 0.116 µM [activator, single point]",
COc1ccc(NC(=S)Nc2ccc(OC)cc2OC)c(OC)c1,inconclusive: 18.4%,,
CCOc1ccc(S(=O)(=O)Nc2cccc(C(=O)N3CC(C)OC(C)C3)c2)cc1 (stereo unspecified),,"inconclusive: 6.51 µM [falling, partial curve, poor fit]",
CC12CCC(c3c(C(=O)Nc4nccs4)nn(-c4ccccc4)c31)C2(C)C (stereo unspecified),,"inconclusive: 29.1 µM [activator, partial curve]",

# 5 neighbouring entries out of the list so far, quoted:
Compound,"lipid storage change, negative = inhibition",Potency,outcome
C/C(=N\N=C(/N)SC1CC(=O)N(c2ccc(Cl)cc2)C1=O)c1cccs1 (stereo unspecified),inconclusive: 6.99%,,
CCOC(=O)COn1c(=O)c(-c2ccc(Br)cc2)[n+]([O-])c2ccccc21,inconclusive: 15.2%,,
COC(=O)c1c(NC(=O)CSc2nc3ccccc3c(=O)n2-c2ccccc2)sc(C)c1C,inconclusive: 35.4%,,
COc1cc(-c2cn(S(=O)(=O)c3cccc4nsnc34)nc2N)cc(OC)c1OC,,"inconclusive: 9.2 µM [rising, partial curve]",
CCCCN(C)CCN1C(=O)C2C(C(=O)Nc3cccc(OC)c3)C3C=CC2(O3)C1C(=O)NC1CCCCC1C (stereo unspecified),,"inconclusive: 10.3 µM [falling, single point]",
